Drawing on article PMC7819943, “Rice protein-binding microarrays: a tool to detect cis-acting elements near promoter regions in rice”, this text covers binding signal for 54 sequences.

By UniProt entry, the sequences of proteins in these tests, tags left out.
UniProt Q0JBA9, entry or part of it: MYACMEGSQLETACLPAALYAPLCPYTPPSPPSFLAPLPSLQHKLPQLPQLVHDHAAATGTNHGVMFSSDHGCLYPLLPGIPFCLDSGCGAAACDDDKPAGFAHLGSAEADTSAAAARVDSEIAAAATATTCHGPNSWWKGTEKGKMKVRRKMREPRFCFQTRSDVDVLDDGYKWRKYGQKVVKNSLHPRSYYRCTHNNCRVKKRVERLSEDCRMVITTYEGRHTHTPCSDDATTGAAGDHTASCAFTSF

This is one part of the list.

The experiment addresses OsWRKY34 (Oryza sativa, UniProt Q0JBA9 1-250). In words: protein-binding microarray (RPBM); PBS, 2% BSA, 51.3 ng/ul salmon testes DNA, 50 uM zinc acetate, 200 nM TF, 25 C, 1 h; high values mean tight binding. The note with it: protein: recombinant; tags: N-terminal polyhistidine and DsRed monomer fusion (pET32a); label: CyDye5-dUTP incorporated in the synthesized complementary strand; 3' TTTTT single-stranded linker to array surface; dsDNA, one strand shown. The essentials:
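Transcription factors were made in E. coli BL21-CodonPlus as N-terminal fusions to a polyhistidine tag and DsRed, then purified on Ni–NTA. After primer extension with Cy5-dUTP and blocking with 2% BSA, a custom Agilent array was exposed for 1 h at 25 °C to 200 nM protein in PBS, 2% BSA, salmon testes DNA and 50 µM zinc acetate. Washed arrays were scanned on an Axon 4000B, and the binding signal is per-feature fluorescence intensity in arbitrary units.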
As for “TAGTGGTTAGGGGTATCATGGAGAGGAATTTAAATTGGAACGGAGTCACCTAGTGCAG”, the binding signal is 8580 fluorescence intensity (a.u.).

Turning to “GACCGGAATTCTTTTTTCTTATCCTTTATCTTTGCTAAACCGGAGTCACCTAGTGCAG”, the binding signal was 13000 fluorescence intensity (a.u.). Next, “CTGTTTTGACAAATTGTTCATCGGTCGCTGCTTCTGTGGACGGAGTCACCTAGTGCAG”: 8750 fluorescence intensity (a.u.). In the case of “CTCAGCTTCTCCTCTCTCTCTCTCCTCGTACGCGCCAACACGGAGTCACCTAGTGCAG”, the binding signal is 8550 fluorescence intensity (a.u.). Turning to “CGCTCTCTCTCTCTACACCATAGAGCCGTTCATGTTCTGTCGGAGTCACCTAGTGCAG”, the binding signal is 10000 fluorescence intensity (a.u.).

Take “GGGGAGATTTAGGATGTGTTCGGTTGGAGGGATTTTCTAACGGAGTCACCTAGTGCAG”: the binding signal was 11100 fluorescence intensity (a.u.). The value for “CATCGTACCAATTTCAACCCAAACTTCTACCTTTGAAAGTCGGAGTCACCTAGTGCAG” was 8640 fluorescence intensity (a.u.); that for “ACCCATTTCATATTATAAGTCATTTGACTTTTTTCTAGTCCGGAGTCACCTAGTGCAG” was 12000 fluorescence intensity (a.u.). The value for “AATTATTTGTCTAGTTTCATCGTTAGAATTTATCTTTTCTCGGAGTCACCTAGTGCAG” was 10300 fluorescence intensity (a.u.). Consider “AGACGCCTCGCTGTCGACGGGTTTCTCTTGGGTATGGGATCGGAGTCACCTAGTGCAG”, for which the binding signal was 8890 fluorescence intensity (a.u.).

As for “TGTTGCAATTGTGGTATTCTTCCTTCTGGTGGTCGCGTTCCGGAGTCACCTAGTGCAG”, the binding signal is 9640 fluorescence intensity (a.u.). On to “TCACTCTCTTCATCTCATGAGCATCTCACTCACTCATCTCCGGAGTCACCTAGTGCAG”, for which the binding signal is 8710 fluorescence intensity (a.u.). Next, “TTCTCCTGCTACCTGGTTGCTTCTTGTGTTCTTGTGCTACCGGAGTCACCTAGTGCAG”: 10000 fluorescence intensity (a.u.); “TTCGGGTTCAATTTCAGGTTCAGTCGCTTGCTTGGTGCTTCGGAGTCACCTAGTGCAG”: 8960 fluorescence intensity (a.u.).

Regarding “CTTCTCTTTCTTGCTCCGTCAATACACCAGCACACAAATCCGGAGTCACCTAGTGCAG”, the binding signal is 10600 fluorescence intensity (a.u.). Next, “GACTGATGTACACCGCTGCACCCGCGCCTGCACCCGCGCGCGGAGTCACCTAGTGCAG”: 11200 fluorescence intensity (a.u.); “CGCGGGTACGTTTTTCAAATGATTTAACAGTACGTTTTTACGGAGTCACCTAGTGCAG”: 9480 fluorescence intensity (a.u.). For “TTATCATGGGCACAACTTGCTAGATCTCATCCAATCTTGGCGGAGTCACCTAGTGCAG”, the binding signal was 10600 fluorescence intensity (a.u.). The value for “GTTGGAGTTGGAGGAGGTGGTGCCGTGGTGGGGATTGATGCGGAGTCACCTAGTGCAG” was 10500 fluorescence intensity (a.u.); that for “CATCTTTGTGGTTGTGTGGGTGTGTGTGTATATATATACCCGGAGTCACCTAGTGCAG” was 8180 fluorescence intensity (a.u.). As to “TATTCTTCTTCTCTTTGGGCATTGCTTTATATGGTTATTTCGGAGTCACCTAGTGCAG”, the binding signal was 8480 fluorescence intensity (a.u.). The value for “AACATTTTTTAAATTTATTCTCACTTTTTCTGATTTTTACCGGAGTCACCTAGTGCAG” was 8210 fluorescence intensity (a.u.); that for “AAACTTCCTCTTGAAATTTCATTCATGTTCCTTACTTACACGGAGTCACCTAGTGCAG” was 10100 fluorescence intensity (a.u.); that for “AGTAATGTCATTGGCCTATCATATTCTGACTATGTTTTATCGGAGTCACCTAGTGCAG” was 9290 fluorescence intensity (a.u.). Next, “TGATTTAGCTGATATCGCGTGTTTATTTTCTTCGGAATTTCGGAGTCACCTAGTGCAG”: 8390 fluorescence intensity (a.u.); “TCTTTGTTTATGCTTGTCGTTTCCTTGTGTGAGGTCAGCACGGAGTCACCTAGTGCAG”: 11600 fluorescence intensity (a.u.); “TCTAGATATCTCTCTCTTTTTCTCTCTAGATCTCTCTTTTCGGAGTCACCTAGTGCAG”: 13500 fluorescence intensity (a.u.). The value for “CCTTCTTGTCCTGCTCCCGCGCCGGCTCCGACCGGGTCCTCGGAGTCACCTAGTGCAG” was 8600 fluorescence intensity (a.u.). Regarding “CTGGTCACCCATTTAGTTGTGTTTTTTTTCTGTTATATTTCGGAGTCACCTAGTGCAG”, the binding signal is 9390 fluorescence intensity (a.u.). Next, “CATATATGTAGCCCGCTACTCTTCTCTCTTCTTTTATCTTCGGAGTCACCTAGTGCAG”: 8980 fluorescence intensity (a.u.). Turning to “CCGCCGCTGTCGTCCTCGTCGTCCCCACCACCACCACCTCCGGAGTCACCTAGTGCAG”, the binding signal is 8210 fluorescence intensity (a.u.). Turning to “AAGAGAATTGTGAGGGTGCATTGTGGAGGTCATATCCTTACGGAGTCACCTAGTGCAG”, the binding signal is 9490 fluorescence intensity (a.u.). Turning to “TAATTTTAGGTTTTTTCTCATGTTTATTTTTAAGTATTTGCGGAGTCACCTAGTGCAG”, the binding signal was 8860 fluorescence intensity (a.u.). With “TCCGTTTCCATCTCGTTCTGCATTTTCGTGGGCTTTGATTCGGAGTCACCTAGTGCAG”, the binding signal was 10300 fluorescence intensity (a.u.).

Regarding “GGAAGGCTGGCTTCCGCGCGACGCGTTCTTCCTTTCCGCGCGGAGTCACCTAGTGCAG”, the binding signal is 8470 fluorescence intensity (a.u.). For “CCTAGATGTATGTATGCGTTTACAAGGGTGAGTGTGCTTACGGAGTCACCTAGTGCAG”, the binding signal was 8670 fluorescence intensity (a.u.). As to “GCGCTCCGCTACCTGTGCCTCGCCAACGCCGACCTCCTCGCGGAGTCACCTAGTGCAG”, the binding signal is 9660 fluorescence intensity (a.u.). For the sequence “TTGTCATGTGGTTTCGTTGTCCTTGCGGTTCAATCAACGTCGGAGTCACCTAGTGCAG”, the binding signal was 10900 fluorescence intensity (a.u.).

As for “AAGCTAGGTAGGAGGTTTTTGTGTGTGTGTGTGTGTGATGCGGAGTCACCTAGTGCAG”, the binding signal was 8290 fluorescence intensity (a.u.). “TTCCTAACTAAGTTTGTTGTATTTTTTTTTTTCAAGTACTCGGAGTCACCTAGTGCAG”: the binding signal is 8180 fluorescence intensity (a.u.). In the case of “CAACCTACTTCCTTACCACACTTGGTTTCTATAACAAACACGGAGTCACCTAGTGCAG”, the binding signal was 8290 fluorescence intensity (a.u.). Next, “ACACTTGGCATTTTTACTTGTTATGATTCTAGTTTGACCACGGAGTCACCTAGTGCAG”: 10800 fluorescence intensity (a.u.); “CAGCAGTGTGTGTAAGAGGAGAGAGAAGCAGTGCCCTTTACGGAGTCACCTAGTGCAG”: 8530 fluorescence intensity (a.u.); “CTCTTTTGGTCATGTGTTTGGTACTGCTTGTCGCACTTTCCGGAGTCACCTAGTGCAG”: 16000 fluorescence intensity (a.u.). Next, “GATACAACCATTGCTCACATCATGGATGAACAAGATGACACGGAGTCACCTAGTGCAG”: 8160 fluorescence intensity (a.u.). Next, “ATGGAGGCGGTGGTCGGAGGTGGCAGACGATGCTCGGGGACGGAGTCACCTAGTGCAG”: 8040 fluorescence intensity (a.u.); “GAGGCCGGGGTCGGGGCGAGCGAGGCGAGAGGGGAGGAGGCGGAGTCACCTAGTGCAG”: 8910 fluorescence intensity (a.u.). In the case of “TTCATGCTTATCACCGCCTATGACTCAGCTTTTCAGCACTCGGAGTCACCTAGTGCAG”, the binding signal is 8390 fluorescence intensity (a.u.).

Regarding “TTCTGAAACGTTCTTAATAACATGTCCCGTTTCTCTTTCTCGGAGTCACCTAGTGCAG”, the binding signal is 8870 fluorescence intensity (a.u.). Turning to “GCGTTGATGTTCCGAGGCTTGTCACAGGTGCTTATTTGTGCGGAGTCACCTAGTGCAG”, the binding signal was 9670 fluorescence intensity (a.u.). On to “TGTGACCTAGGATTGTTATTTTATATTTGTAGATTGTGTGCGGAGTCACCTAGTGCAG”, for which the binding signal was 9140 fluorescence intensity (a.u.). Consider “TAGCAGTGTTCTTCATTGTAGATGCCCTTACTATTACTTTCGGAGTCACCTAGTGCAG”, for which the binding signal was 8070 fluorescence intensity (a.u.). “CTCTCTTGTCTAGCTATCTTTCTTTGCATGTCTTTGCATTCGGAGTCACCTAGTGCAG”: the binding signal is 9760 fluorescence intensity (a.u.). In the case of “TTTAGATTTTTTTTCTTCTTCAAACGTTCAACTTTTCCGTCGGAGTCACCTAGTGCAG”, the binding signal is 9040 fluorescence intensity (a.u.).
